This passage reports binding results from article PMC5114622, “In vivo protein interaction network analysis reveals porin-localized antibiotic inactivation in Acinetobacter baumannii strain AB5075” (Nature Communications, 2016).

Protein sequences, listed by entry. Tags and fused reporters are not part of them. Residues count along the entry.
UniProt Q9L4P2, residues 18-273: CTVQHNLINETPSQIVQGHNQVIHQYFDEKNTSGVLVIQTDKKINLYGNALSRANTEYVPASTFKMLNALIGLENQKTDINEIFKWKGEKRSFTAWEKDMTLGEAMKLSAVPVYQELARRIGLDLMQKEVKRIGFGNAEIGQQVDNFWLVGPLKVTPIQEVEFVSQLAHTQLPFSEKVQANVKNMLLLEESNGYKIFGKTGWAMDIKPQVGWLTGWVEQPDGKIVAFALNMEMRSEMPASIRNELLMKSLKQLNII

The target in this assay is β-lactamase Oxa-23 (Acinetobacter baumannii AB5075 (endogenous in AB5075 cells)) (UniProt Q9L4P2). As to the kind of experiment: cross-linking; in vivo cross-linking of intact A. baumannii AB5075 cells with the PIR cross-linker BDP-NHP (500 mM Na2HPO4 pH 7.4, 150 mM NaCl, room temperature), trypsin digest, avidin enrichment, LC-MS (ReACT); cross-linked peptide pairs identified.

No constants are given. Whether binding was seen depends on the method and setting. In cells and extracts the contact can be indirect. Some entries that bind do so weakly or less than the wild type.

In the case of “β-lactamase Oxa-23 (from UniProt Q9L4P2 18-273) (enzyme)”, the binding entry is “binds”.
